This passage reports binding results from publication PMC10167262.

Chains of the proteins cited; added tags and fusions are not shown.
UniProt P12956: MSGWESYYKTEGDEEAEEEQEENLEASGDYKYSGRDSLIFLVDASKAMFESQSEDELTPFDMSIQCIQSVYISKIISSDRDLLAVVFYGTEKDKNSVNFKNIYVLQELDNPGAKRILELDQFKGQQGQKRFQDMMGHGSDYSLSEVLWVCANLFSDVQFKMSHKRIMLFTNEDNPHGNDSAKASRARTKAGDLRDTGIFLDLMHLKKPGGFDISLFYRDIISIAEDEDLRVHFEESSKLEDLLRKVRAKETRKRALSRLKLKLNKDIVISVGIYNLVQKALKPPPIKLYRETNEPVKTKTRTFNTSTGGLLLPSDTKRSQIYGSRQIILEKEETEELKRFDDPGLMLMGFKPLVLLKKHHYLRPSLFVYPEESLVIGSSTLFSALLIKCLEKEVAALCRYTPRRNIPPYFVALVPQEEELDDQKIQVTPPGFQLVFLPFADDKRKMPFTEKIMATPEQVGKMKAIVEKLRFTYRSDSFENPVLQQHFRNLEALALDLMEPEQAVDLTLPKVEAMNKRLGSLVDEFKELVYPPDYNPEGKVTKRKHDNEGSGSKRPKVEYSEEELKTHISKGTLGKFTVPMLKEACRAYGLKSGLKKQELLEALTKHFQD

The target of this experiment is Ku70 (human (endogenous in MDA-MB-231)) (UniProt P12956). Briefly: co-IP; endogenous proteins; cells lysed in NETN buffer (20 mM Tris-HCl pH 8.0, 100 mM NaCl, 0.5% NP-40); immunoprecipitation with CXorf56 protein or Ku70 antibody, overnight at 4 °C, agarose beads; immunoblot; also MDA-MB-231 cells synchronized with nocodazole and released, without or with IR (2 Gy, 1 hour).

These are yes or no findings as the source states them, for the method shown. Binding seen in cells or lysates may run through a third protein. Some binding calls cover weakened binding; strength is not graded here.

For “CXorf56 protein (from UniProt Q9H5V9 1-222)”, the binding result is reported as “binds”.
